Test results as given in publication PMC7109056.
The exact form of at least one protein or probe is not confirmed.

Tested on: MdbHLH3-His (Malus domestica)
Assay: EMSA
Conditions: unlabeled same-sequence probe competes in proportion to amount; LightShift chemiluminescent EMSA kit (Thermo), biotin-labeled probe; pH and temperature not stated (as in Hu et al.); recombinant protein; protein details: His; label: biotin (probe), unlabeled as competitor

GTTTCGTAAAATTTGTTTTCATTTGTTGGTGGAGAAAAG (double strand) [MdDEP1 promoter E-box2 probe]
binding result: binds
